No constants are given. Whether binding was seen depends on the method and setting. Some entries that bind do so weakly or less than the wild type.
Assays:
[1] = target: P-selectin (R&D Systems), coated on glass slides (UniProt P16109); assay: parallel plate flow chamber, polystyrene nanoparticles, fluorometer and confocal microscopy
[2] = target: P-selectin (R&D Systems), coated on glass slides (UniProt P16109); assay: 100-nm polystyrene nanoparticles on P-selectin coated surfaces under physiological flow
[3] = target: P-selectin expressed on histamine-activated endothelial cells (HAECs) (UniProt P16109); assay: adhesion of GP Ib conjugated nanoparticles to HAECs under varying shear stress (FIG. 34)
[4] = target: P-selectin (R&D Systems), coated on glass slides (UniProt P16109); assay: PLGA nanoparticles on coated surfaces under flow

The chains behind the UniProt entries cited, without tags or fusion partners. Where a name states a change or a piece, a line headed by the entry shows the natural chain unless it says otherwise. Residues count along the entry.
UniProt P16109: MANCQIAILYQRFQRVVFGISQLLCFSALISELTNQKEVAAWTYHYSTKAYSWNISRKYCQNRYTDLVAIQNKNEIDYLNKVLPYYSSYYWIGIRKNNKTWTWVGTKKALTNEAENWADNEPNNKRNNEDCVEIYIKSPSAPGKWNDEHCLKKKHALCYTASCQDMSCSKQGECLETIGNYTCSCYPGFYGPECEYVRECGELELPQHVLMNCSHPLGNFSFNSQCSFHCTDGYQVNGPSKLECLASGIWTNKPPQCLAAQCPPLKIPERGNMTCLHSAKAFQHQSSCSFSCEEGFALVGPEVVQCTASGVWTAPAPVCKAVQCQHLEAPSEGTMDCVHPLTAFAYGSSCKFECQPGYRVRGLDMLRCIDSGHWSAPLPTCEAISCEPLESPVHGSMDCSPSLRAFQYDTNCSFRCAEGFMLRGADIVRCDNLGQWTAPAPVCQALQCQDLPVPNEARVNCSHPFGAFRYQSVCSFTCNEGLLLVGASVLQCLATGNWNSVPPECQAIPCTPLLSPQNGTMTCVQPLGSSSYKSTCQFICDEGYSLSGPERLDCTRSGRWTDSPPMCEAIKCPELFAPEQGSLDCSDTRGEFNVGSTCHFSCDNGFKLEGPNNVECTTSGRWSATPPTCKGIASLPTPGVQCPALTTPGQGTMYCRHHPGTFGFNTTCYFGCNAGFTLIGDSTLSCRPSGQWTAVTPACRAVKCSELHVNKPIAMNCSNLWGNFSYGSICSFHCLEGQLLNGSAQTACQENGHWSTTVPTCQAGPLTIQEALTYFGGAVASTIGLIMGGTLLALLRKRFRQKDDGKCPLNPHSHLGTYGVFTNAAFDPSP
P-selectin expressed on histamine-activated endothelial cells (HAECs): residues 42-830 of P16109
P-selectin (R&D Systems), coated on glass slides: residues 42-771 of P16109
UniProt P07359, residues 17-531: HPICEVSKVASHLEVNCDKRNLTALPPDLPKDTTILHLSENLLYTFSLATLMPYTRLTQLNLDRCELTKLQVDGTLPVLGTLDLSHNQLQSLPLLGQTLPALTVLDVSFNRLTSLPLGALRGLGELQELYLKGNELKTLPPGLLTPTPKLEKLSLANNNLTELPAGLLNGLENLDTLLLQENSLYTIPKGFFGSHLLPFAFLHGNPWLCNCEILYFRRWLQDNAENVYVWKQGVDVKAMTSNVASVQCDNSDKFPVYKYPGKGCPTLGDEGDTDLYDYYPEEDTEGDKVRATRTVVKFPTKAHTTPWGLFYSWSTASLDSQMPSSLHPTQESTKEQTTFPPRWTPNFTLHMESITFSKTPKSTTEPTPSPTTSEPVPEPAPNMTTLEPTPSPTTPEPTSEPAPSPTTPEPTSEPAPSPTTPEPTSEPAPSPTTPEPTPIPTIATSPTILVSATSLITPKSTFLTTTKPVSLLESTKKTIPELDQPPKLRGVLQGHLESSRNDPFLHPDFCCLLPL

Measured: binding

glycocalicin (the extracellular segment of platelet GP Ibα), biotinylated and bound through avidin to nanoparticles (from UniProt P07359 17-531) (receptor)
binds: all assays above

Source: patent US20110097416A1
